## Primary screen of a compound library

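Whole-cell assay for inhibitors of Mycobacterium tuberculosis growth, labelled Cornell in the record; the read-out is not stated. The concentration is filed as 10 mM, unlikely as a test dose, so the dose is not known. The record gives no direction; compounds strong in two other growth screens of this library score well above the rest, so higher reads as stronger inhibition. About 53,000 compounds were tested under these conditions; 1.7% (about 900) showed 50% or more at least once.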

Results are given as percent effect.
The record does not define 0% and 100%; most values in the screen are far below 50% and negative numbers occur (in some assays of this library far below -100).
The compounds are a random part of those screened.

structure | percent effect
COCCO[C@@H]1CCN(Cc2csc(C)n2)[C@H]1Cc1ccccc1.O=C(O)C(F)(F)F | -7.412%
CN1CCN([C@H]2CCN(C(=O)c3nn(C)cc3Cl)C[C@H]2CCCO)CC1 | -11.5%
CCc1cnc2c(c1NCc1ccc(OC)cc1)c(=O)n(C)c(=O)n2C | 1.648%
O=C(c1cccnc1-c1ccc2c(c1)OCCO2)N1CCCC1 | -24.37%
Cc1ccc(N2Cc3cnn(Cc4ccc(F)cc4)c3C2)nn1 | 6.084%
Cn1nc(C2CN(C(=O)c3ccncc3)C2)c2nccnc21 | -37.45%
CCNC(=O)COc1ccc(C(=O)NC(C)CCc2ccco2)cc1 (stereo not given) | -41.37%
Cc1cccc(N2CCN(C(=O)Nc3cnn(CC(N)=O)c3)CC2)c1 | 8.271%
CC(NC(N)=O)C(=O)N(C)CCCc1cc(-c2ccccc2)no1 (stereo not given) | 18.88%
CCC[C@H]1CN(S(=O)(=O)c2cc(C)ccc2C)C[C@@H]1N | 16.29%
[H][C@@]12CNC[C@]1([H])[C@H]2C(=O)N1CCN(c2ccc(OC)cc2)C(C)(C)C1 | -6.078%
COCCN(Cc1cccnc1)S(=O)(=O)c1ccc(F)cc1C | 17.69%
Cc1nc2c(c(NC3CCN(Cc4ccccc4)CC3)n1)CCNCC2 | -18%
CCC(=O)N1CCC(c2nc(N3CCOCC3)ncc2S(C)(=O)=O)CC1 | 43.18%
O=C(Cc1cccs1)N1Cc2nc(COCC3CC3)oc2C1 | 30.75%
Cc1cccc(CN(Cn2nc(C)c3c(C)onc3c2=O)C2CC2)c1 | 12.43%
CCCc1nc(N2CCCCCC2)c2c(n1)c(C)nn2CC | 68.4%
COCc1nn(C(C)C)c2c1CCN(Cc1ccc(C)o1)C2.O=C(O)C(F)(F)F | 10.67%
Cc1nnc(NC(=O)NCc2ccc(N3CCNC(=O)C3)cc2)s1 | -21.26%
CN(C)S(=O)(=O)N1CCC(c2nnc(C(F)(F)F)o2)CC1 | -10.31%
C[C@@H]1CN(S(C)(=O)=O)C[C@]12CCN(Cc1cccnc1)C2=O.O=C(O)C(F)(F)F | -15.09%
COc1cccc(CC2CCCN2Cc2nccn2C)c1 (stereo not given) | 13.47%
CC(C)c1nn(C)c(N(C)C)c1CNCCC(=O)N(C)C.Cl | 12.08%
CCC(CC)C(=O)NCc1c(C)nn(C)c1N1CCCN(C)CC1 | -28.29%
CCc1ccc(CN2CCC3(CC2)CNC(=O)CO3)o1.O=C(O)C(F)(F)F | 14.43%
CCOCCN1CCN(c2ncccc2C#N)CC1CC (stereo not given) | 13.56%
Cn1nccc1NCc1cc2cc(F)ccc2o1 | -27.44%
COc1ccc(C(C)N(C)Cc2c(C(C)C)[nH]c3ncccc23)cc1 (stereo not given) | 14.01%
CCn1cnnc1CNC(=O)C1CCCN(Cc2cccc(F)c2)C1 (stereo not given) | 0.1543%
[H][C@@]12CCN(CC3CCOCC3)C[C@]1([H])OCCN(c1ccccc1)C2=O | 15.64%
OC1(CN2CCCC2)COCCN(c2nnc(-c3ccccc3)s2)C1 (stereo not given) | 22.31%
CC(=O)N(C)CCc1nc(-c2cc(C(N)=O)co2)cs1 | -8.743%
Cc1cc(CN(C)Cc2csc(-c3ccc(C(C)C)cc3)n2)no1 | 47.23%
Cc1cc(NCCNS(C)(=O)=O)nc2cc3c(cc12)CCC3 | -25.91%
Cc1ccsc1CN1CCc2nc3ccsc3c(=O)n2CC1.Cl | -68.74%
Cc1nc(CSc2ccc(C(F)(F)F)cn2)no1 | -8.119%
Cc1ccc(O)c(CN2CCCCC2CCN2CCOCC2)c1 (stereo not given) | 0.4241%
Cc1ccc(N2CC[C@H](OCC3CC3)[C@@H]2Cc2cccnc2)nn1.O=C(O)C(F)(F)F | -7.978%
COc1ccc(CN(C)[C@@H]2CN(C(=O)c3cccn3C)C[C@H]2O)cc1 | -27.1%
CCCNC(=O)C(C)Oc1ccc(F)cc1 (stereo not given) | 0.7586%
Cc1nc(-c2ccc(CO)cc2)cc(C2CCNCC2)n1.Cl | 12.1%
O=C(Nc1ccccc1)C1CCCN(c2cc(-n3cncn3)ncn2)C1 (stereo not given) | 3.331%
COCCn1cnc2ccc(NC(=O)CCCn3cccn3)cc2c1=O | -4.811%
CN(Cc1ccccc1F)C(C(N)=O)c1ccccc1 (stereo not given) | -7.217%
CN1C(=N)NC(=O)/C1=C\c1ccc(-c2ccc(F)cc2)o1 | 15.44%
NC(=O)c1ccc(CN2CCC(N3CCCC3)CC2)cc1 | 1.149%
Cn1ccnc1CN1CCC2(CC1)CCN(c1ccccc1)C2=O.O=C(O)C(F)(F)F | -36.06%
O=C(O)C(F)(F)F.[H][C@]12CN(C(=O)C3CCC3)C[C@@]1([H])C(=O)N(Cc1ccncc1)C2 | 2.756%
COc1ccccc1CCNC(=O)CNCC1CN(C)CCO1 (stereo not given) | -6.002%
O=C(c1ccon1)N1CCc2ncnc(NCc3ccccn3)c2CC1 | -6.383%
Cc1cnc(N2CCC3(CC2)COCCN(C(C)C)C3)nc1.O=C(O)C(F)(F)F | -1.594%
COc1ccc(SC(C)C(=O)N2CCC(C(N)=O)CC2)cc1 (stereo not given) | -41.67%
Cc1ncc(C(=O)OCC2CCN(c3ccccc3)C2)s1 (stereo not given) | -13.58%
CCC(C)(C)C(=O)NCCCOC1CCOC1 (stereo not given) | -16.71%

The last 6 entries again:

structure,percent effect
COc1ccccc1CCNC(=O)CNCC1CN(C)CCO1 (stereo not given),-6.002%
O=C(c1ccon1)N1CCc2ncnc(NCc3ccccn3)c2CC1,-6.383%
Cc1cnc(N2CCC3(CC2)COCCN(C(C)C)C3)nc1.O=C(O)C(F)(F)F,-1.594%
COc1ccc(SC(C)C(=O)N2CCC(C(N)=O)CC2)cc1 (stereo not given),-41.67%
Cc1ncc(C(=O)OCC2CCN(c3ccccc3)C2)s1 (stereo not given),-13.58%
CCC(C)(C)C(=O)NCCCOC1CCOC1 (stereo not given),-16.71%

Data taken from ChEMBL document CHEMBL3988442, “University of Dundee, Small-Polar-MMV Screening Library” (2021).